Values of other authors as cited in US20090312352A1 (priority 2004, published 2009).
At least one compound was matched to its structure with a doubt left.

The chains behind the UniProt entries cited, without tags or fusion partners. Residues count along the entry.
UniProt O68720, 1-468: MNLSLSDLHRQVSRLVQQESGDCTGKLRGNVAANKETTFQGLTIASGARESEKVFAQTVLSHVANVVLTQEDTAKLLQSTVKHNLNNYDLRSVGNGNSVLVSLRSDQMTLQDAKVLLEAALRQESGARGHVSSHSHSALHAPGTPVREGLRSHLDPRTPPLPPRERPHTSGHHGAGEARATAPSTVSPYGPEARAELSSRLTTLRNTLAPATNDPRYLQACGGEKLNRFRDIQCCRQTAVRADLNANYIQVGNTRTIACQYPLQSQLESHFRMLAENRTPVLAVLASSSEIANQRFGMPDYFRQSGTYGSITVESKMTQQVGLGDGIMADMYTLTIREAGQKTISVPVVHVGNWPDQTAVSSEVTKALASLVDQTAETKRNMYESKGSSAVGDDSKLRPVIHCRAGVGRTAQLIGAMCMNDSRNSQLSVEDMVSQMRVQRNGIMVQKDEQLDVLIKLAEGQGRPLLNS

Target: YopH virulence factor of Yersinia pestis (Yersinia pestis, UniProt O68720)
Conditions: cited from earlier work

O=C(O)C1=CC(=C(c2ccc(O)c(C(=O)O)c2)c2ccc(O)c(C(=O)O)c2)C=CC1=O [aurintricarboxylic acid]
block of YopH activity: block in vitro and in vivo activity of YopH
